Results: patent US7741051B2, “Soluble ectodomain fragments of MET and uses thereof” (Medical Research Council, priority 2003, dated 2010)
These are yes or no findings as the source states them, for the method shown. Some entries that bind do so weakly or less than the wild type. Values belong to the substance of their own block, whether it stands above or below them.

Sequences of proteins named here, by UniProt entry; tags and fusion partners are left off. A change or cut given only in a name is not applied to a line headed by its entry.
UniProt P14210: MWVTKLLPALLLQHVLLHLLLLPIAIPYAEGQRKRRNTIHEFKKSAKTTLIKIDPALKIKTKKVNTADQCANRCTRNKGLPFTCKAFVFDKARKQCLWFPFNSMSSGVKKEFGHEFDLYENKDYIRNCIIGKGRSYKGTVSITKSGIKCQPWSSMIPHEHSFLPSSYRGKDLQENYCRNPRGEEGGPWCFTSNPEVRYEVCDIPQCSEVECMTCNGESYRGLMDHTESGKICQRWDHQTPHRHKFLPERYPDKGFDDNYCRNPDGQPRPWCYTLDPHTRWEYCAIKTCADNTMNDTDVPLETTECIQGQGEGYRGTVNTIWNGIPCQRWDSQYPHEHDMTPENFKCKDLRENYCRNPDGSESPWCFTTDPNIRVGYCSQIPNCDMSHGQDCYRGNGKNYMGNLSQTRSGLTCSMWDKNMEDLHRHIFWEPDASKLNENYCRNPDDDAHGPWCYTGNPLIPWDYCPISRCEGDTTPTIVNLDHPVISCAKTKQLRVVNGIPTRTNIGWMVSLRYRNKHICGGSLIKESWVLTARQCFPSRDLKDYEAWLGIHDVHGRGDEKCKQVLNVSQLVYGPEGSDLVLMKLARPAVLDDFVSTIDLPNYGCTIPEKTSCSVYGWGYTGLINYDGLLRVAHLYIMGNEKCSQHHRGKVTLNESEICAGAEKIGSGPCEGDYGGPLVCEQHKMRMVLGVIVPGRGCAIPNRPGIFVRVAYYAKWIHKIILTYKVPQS

Experiments:
MET 25-928H (human) [1] = target: MET 25-928H (human) (UniProt P08581); test: native agarose gel electrophoresis, equimolar HGF/SF and MET 25-928H (4x10^-6 M), with or without heparin
MET 25-928H (human) [2] = target: MET 25-928H (human) (UniProt P08581); test: velocity sedimentation (analytical ultracentrifugation) with heparin; compatible only with a 1:1:1 complex; binary complex without heparin called unstable in solution
MET 25-928H (human) [3] = target: MET 25-928H (human) (UniProt P08581); test: solid phase assay, MET928H coated at 2x10^-8 M, HGF/SF detected with sheep anti-HGF/SF and HRP anti-sheep
[4] = target: T1, recombinant single chain HGF/SF (R494E) (human, UniProt P14210 32-728); test: solid phase assay, single chain (R494E) HGF/SF coated, dimeric MET detected with HRP anti-human IgG
T1 construct: also called single chain (R494E) HGF/SF

MET 25-928H (human) [5] = target: MET 25-928H (human) (UniProt P08581); test: ELISA, MET928H coated on HisGrab or Maxisorp plates, streptavidin peroxidase detection

binding (MET 25-928H (human) [1]): binds | binding (MET 25-928H (human) [2]): binds | binding (MET 25-928H (human) [3]): binds
Substance: HGF/SF (from UniProt P14210 32-728) (ligand)

binding [4]: binds
Substance: MET 25-519GH (from UniProt P08581 25-307; P08581 308-519) (Fc fusion)

binding [4]: binds
Substance: MET 25-567GH (from UniProt P08581 25-307; P08581 308-567) (Fc fusion)

binding (MET 25-928H (human) [5]): binds
Substance: biotinylated HGF/SF (from UniProt P14210 32-728) (ligand)
